# Values quoted from earlier work as cited in patent US20260174718A1, “MODULATORS OF mTORC1 ACTIVITY AND USES THEREOF” (Navitor Pharmaceuticals, Inc., priority 2022, published 2026).
# For at least one compound, name, drawing or mass did not settle the structure.
# Legend:
# stressed mice = conditions: single ketamine (50 mg/kg) injection, post-ketamine treatment with 1200 mg/L of lithium
# mice = conditions: subtherapeutic (600 mg/L) lithium pretreatment, then ketamine 2.5 mg/kg intraperitoneally
structure (smiles),measurement,setting,value
[Li] [lithium],time for which antidepressant-like effects and restoration of dendritic spine density were sustained,stressed mice,at least 2 weeks
same,response in the forced swim test,mice,antidepressant-like response
